{
  "sequences": {"note": "By UniProt entry, the sequences of proteins in these tests, tags left out. Where a name states a change or a piece, a line headed by the entry shows the natural chain unless it says otherwise.", "UniProt Q9ULX5": "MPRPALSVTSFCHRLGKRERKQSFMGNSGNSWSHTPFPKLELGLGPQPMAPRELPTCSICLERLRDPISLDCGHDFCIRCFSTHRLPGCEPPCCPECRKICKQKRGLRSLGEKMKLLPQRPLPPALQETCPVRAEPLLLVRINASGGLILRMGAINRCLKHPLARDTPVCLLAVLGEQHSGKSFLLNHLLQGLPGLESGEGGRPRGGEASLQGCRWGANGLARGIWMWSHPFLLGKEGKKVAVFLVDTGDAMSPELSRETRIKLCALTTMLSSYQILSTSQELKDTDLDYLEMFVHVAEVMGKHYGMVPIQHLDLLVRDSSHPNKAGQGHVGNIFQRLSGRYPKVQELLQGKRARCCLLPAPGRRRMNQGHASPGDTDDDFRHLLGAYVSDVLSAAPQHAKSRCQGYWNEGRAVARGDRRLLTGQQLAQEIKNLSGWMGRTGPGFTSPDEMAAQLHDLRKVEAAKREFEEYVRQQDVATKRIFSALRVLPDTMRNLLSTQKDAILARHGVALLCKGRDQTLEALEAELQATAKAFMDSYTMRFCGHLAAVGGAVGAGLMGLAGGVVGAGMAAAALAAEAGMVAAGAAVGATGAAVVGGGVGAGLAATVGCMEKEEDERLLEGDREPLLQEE"},
  "source": "paper PMC10259508",
  "target": "T1, Forkhead box M1 (FOXM1), FLAG-tagged (UniProt Q08050)",
  "T1 sequence": "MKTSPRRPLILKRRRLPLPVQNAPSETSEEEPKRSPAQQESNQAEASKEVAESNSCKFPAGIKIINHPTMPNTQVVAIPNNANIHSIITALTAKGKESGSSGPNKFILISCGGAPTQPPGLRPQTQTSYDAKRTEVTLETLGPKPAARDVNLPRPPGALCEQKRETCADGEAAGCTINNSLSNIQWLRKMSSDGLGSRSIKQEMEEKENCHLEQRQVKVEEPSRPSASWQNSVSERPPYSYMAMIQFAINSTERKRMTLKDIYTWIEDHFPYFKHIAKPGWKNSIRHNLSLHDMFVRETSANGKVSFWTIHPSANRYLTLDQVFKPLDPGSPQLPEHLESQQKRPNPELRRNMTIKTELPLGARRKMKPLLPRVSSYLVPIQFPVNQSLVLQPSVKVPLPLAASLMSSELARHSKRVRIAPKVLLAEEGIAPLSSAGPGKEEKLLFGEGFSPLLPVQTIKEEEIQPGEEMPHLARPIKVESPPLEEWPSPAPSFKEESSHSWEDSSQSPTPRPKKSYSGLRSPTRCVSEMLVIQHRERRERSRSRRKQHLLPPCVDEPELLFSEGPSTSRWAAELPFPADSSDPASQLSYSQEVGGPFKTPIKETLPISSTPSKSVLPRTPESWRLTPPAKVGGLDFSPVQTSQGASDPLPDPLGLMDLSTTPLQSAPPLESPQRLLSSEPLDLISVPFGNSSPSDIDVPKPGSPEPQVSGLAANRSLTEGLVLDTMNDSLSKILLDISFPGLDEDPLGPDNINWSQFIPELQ",
  "assay": "co-IP; HEK293T cells transfected with the tagged constructs, 10 uM MG132 for 8 hours before harvest; lysis in EBC buffer (50 mM Tris pH 7.5, 120 mM NaCl, 0.5% NP-40); anti-HA or anti-FLAG agarose beads, 3 hours at 4 °C; washed with NETN buffer; immunoblot; some panels with DMSO or RCM-1 (10 uM) and LMB (25 nM) for 24 hours",
  "note": "No constants are given. Whether binding was seen depends on the method and setting. Binding seen in cells or lysates may run through a third protein. Binding calls can cover weak binding; strength is not graded here. Tags and fused reporters may be left off the sequences shown.",
  "data": [
    {"substance": "catalytic dead RNF112 (RNF112-Mut) (from UniProt Q9ULX5) (enzyme)", "values": [
      {"measurement": "binding", "result": "binds"}
    ]}
  ]
}
